PubChem BioAssay AID504784 – Drosophila RNAi Screening Center | 2011
Screen: 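Search for regulators of lipid droplet storage in oleate-fed fly cells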 (primary screen). Cell system: Drosophila Kc167 embryonic cells. Knock-down reagent: long dsRNA against Drosophila genes, about 250 ng dsRNA per well. Time to read-out: 4 days. Challenge: cells fed 400 µM oleic acid bound to BSA. Read-out: 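Cells imaged and segmented; ratio of lipid droplet area to nuclear area, log-transformed, then normalised as a B-score over the screen; higher means more stored lipid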. Direction: droplet/nuclear area B-score: higher = more stored lipid (overstorage).
The screen tested about 17,000 reagents; below is an unselected part of those that have a named target and a result. 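Each column is one replicate's B-score; the combined score over replicates was not deposited, so single values may mislead.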 Reagents against one gene are numbered here. Further read-outs or replicates are left out here. Reagent sequences are not shown.

After knock-down of Eig71Ei, the record shows droplet/nuclear area B-score, replicate 1 = -0.359.
Against glo the deposit lists droplet/nuclear area B-score, replicate 1 = -1.33.
Silencing of atk #1 resulted in: droplet/nuclear area B-score, replicate 1 = -0.818.
Depletion of atk #2 came out at: droplet/nuclear area B-score, replicate 1 = -0.0282.
For Pat1, the entry reads droplet/nuclear area B-score, replicate 1 = 2.26.
Ugt35A1 scored droplet/nuclear area B-score, replicate 1 = -0.0591.
Depletion of CG15142 came out at: droplet/nuclear area B-score, replicate 1 = 0.669.
Against CG42264 #1 the deposit lists droplet/nuclear area B-score, replicate 1 = 1.11.
CG42264 #2 showed droplet/nuclear area B-score, replicate 1 = 1.54.
After knock-down of Gcna the results were droplet/nuclear area B-score, replicate 1 = 0.109.
Silencing of Trs31 resulted in: droplet/nuclear area B-score, replicate 1 = 0.974.
For CG8001, the values are droplet/nuclear area B-score, replicate 1 = 1.09.
CG6497 #1 scored droplet/nuclear area B-score, replicate 1 = -1.46.
CG6497 #2 gave droplet/nuclear area B-score, replicate 1 = 1.51.
Depletion of CG5708 came out at: droplet/nuclear area B-score, replicate 1 = 0.023.
Against CG8673, the entry reads droplet/nuclear area B-score, replicate 1 = 1.45.

2 successive entries already listed, for reference:
CG15142 | droplet/nuclear area B-score, replicate 1: 0.669
CG42264 #1 | droplet/nuclear area B-score, replicate 1: 1.11
